Earlier results as cited in US11542290B2 (priority 2018, dated 2023).

Test system: MDCK-MDR1 cells
Details: cited from earlier work

## CC(C)NCC(O)COc1ccc(CC(N)=O)cc1 (stereo not shown) [Atenolol]
  Brain penetrance of reference compound (in words): limited brain penetrance
